From the supplement of paper PMC12823440, “Inhibitors supercharge kinase turnover through native proteolytic circuits” (Nature, 2025)
The list shows a part of the results. Hit calls seldom repeat between salt and free forms of one compound.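 Kinases, fused to nanoluciferase, were expressed in K562 cells; luminescence was measured every 4 h from 2 to 18 h as percent of control (DMSO = 100%, positive control = 0%). A time point is decreased if signal falls significantly (2 sigma). Hits were called by the authors by a rule that is not shown; the count of time points alone does not decide it.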

Amino acid sequences for entries named in this document (tags omitted). A change or cut given only in a name is not applied to a line headed by its entry.
UniProt Q06187: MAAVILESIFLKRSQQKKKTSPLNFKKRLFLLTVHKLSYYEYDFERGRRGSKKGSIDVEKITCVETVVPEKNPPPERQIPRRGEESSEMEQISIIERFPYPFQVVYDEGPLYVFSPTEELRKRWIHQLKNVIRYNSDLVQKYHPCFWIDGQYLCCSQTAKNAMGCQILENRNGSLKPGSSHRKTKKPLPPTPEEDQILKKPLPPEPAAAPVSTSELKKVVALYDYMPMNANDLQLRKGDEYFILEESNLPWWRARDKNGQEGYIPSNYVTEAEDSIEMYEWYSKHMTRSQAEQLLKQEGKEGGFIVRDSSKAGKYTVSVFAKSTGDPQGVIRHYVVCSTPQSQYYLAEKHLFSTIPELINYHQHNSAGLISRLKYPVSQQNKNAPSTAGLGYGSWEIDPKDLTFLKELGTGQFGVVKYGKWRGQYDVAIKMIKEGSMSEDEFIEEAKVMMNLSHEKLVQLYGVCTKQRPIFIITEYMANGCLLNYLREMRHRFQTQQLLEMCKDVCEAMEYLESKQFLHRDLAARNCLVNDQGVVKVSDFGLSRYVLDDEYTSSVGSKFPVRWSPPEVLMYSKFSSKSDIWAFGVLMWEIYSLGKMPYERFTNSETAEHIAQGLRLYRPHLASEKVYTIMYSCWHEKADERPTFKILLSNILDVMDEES
UniProt Q9UQM7, whole entry: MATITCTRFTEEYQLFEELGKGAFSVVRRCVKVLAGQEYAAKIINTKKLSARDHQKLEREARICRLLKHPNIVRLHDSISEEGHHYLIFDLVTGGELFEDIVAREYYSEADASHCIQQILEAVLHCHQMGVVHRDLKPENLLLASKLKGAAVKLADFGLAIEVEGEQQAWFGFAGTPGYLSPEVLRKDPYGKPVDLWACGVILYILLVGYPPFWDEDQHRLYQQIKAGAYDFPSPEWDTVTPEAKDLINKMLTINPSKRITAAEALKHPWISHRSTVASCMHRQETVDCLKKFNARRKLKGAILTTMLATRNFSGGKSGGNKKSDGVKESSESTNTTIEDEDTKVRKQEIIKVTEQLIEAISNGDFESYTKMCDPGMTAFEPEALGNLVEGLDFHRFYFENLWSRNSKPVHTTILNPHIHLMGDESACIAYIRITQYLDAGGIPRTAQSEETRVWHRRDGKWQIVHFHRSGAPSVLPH
UniProt Q13555: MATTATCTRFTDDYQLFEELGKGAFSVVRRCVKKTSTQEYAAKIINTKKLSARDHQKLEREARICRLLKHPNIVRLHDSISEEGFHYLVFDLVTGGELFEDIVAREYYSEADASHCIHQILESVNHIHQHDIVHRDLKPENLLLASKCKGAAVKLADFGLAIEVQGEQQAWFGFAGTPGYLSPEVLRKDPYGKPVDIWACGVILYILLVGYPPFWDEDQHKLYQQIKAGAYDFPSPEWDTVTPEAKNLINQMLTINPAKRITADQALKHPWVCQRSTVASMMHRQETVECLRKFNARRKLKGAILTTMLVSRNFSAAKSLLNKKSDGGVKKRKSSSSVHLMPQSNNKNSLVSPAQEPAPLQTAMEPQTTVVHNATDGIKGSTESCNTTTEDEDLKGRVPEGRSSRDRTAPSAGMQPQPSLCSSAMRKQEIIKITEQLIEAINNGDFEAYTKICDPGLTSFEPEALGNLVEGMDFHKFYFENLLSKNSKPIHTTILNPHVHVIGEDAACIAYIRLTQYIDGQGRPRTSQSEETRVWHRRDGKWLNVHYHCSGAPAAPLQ
UniProt Q15131: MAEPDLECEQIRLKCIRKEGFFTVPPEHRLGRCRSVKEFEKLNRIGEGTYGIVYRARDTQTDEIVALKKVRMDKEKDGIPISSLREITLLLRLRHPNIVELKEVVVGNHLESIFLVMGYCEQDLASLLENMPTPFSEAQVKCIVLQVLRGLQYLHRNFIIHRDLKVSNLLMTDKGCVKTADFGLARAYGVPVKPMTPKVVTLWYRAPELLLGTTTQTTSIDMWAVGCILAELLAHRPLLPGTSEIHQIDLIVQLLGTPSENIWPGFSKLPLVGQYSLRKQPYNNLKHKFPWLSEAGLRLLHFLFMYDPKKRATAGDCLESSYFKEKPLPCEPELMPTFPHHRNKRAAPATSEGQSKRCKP
UniProt Q00526: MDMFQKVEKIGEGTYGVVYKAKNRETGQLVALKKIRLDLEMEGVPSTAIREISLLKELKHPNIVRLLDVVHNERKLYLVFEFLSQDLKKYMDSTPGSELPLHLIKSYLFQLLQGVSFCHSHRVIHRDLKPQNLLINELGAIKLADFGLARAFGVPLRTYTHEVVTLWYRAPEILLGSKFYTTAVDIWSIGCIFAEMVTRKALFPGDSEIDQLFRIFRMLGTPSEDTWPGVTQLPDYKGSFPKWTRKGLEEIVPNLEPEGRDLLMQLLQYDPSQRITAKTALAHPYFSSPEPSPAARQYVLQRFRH
UniProt P11802: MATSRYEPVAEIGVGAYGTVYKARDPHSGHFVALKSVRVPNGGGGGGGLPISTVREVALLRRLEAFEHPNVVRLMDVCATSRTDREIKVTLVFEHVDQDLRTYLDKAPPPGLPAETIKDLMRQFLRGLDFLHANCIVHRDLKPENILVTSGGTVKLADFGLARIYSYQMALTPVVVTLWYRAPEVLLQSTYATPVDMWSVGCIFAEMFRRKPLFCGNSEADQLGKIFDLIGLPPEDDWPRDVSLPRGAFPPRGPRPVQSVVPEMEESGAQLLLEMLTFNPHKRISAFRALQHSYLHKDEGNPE
UniProt Q00535, whole entry, looked up: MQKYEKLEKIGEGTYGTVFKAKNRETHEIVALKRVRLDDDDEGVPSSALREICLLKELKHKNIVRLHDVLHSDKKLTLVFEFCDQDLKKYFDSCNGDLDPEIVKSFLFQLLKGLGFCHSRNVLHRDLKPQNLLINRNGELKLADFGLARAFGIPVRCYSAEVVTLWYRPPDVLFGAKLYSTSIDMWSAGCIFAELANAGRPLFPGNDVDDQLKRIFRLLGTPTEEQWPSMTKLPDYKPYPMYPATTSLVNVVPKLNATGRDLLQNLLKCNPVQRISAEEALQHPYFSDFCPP
UniProt Q00534, whole entry: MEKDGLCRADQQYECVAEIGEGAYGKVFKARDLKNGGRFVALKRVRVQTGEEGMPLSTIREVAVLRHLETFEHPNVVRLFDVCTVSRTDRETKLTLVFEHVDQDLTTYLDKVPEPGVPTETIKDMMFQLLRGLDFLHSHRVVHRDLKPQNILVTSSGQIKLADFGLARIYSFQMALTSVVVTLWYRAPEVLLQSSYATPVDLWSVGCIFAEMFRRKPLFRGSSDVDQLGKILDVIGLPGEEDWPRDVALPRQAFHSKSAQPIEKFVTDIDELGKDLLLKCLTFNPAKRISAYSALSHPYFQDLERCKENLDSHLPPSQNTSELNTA
UniProt P50613: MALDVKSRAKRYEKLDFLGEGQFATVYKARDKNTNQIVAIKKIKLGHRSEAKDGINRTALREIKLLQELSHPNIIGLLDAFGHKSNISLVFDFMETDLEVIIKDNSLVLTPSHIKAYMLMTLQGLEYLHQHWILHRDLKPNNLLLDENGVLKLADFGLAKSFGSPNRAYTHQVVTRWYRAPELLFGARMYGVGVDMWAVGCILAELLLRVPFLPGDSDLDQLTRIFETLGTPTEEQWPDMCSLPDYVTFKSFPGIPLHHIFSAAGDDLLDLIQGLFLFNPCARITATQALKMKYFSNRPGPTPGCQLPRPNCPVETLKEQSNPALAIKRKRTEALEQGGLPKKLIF
UniProt P07333, whole entry: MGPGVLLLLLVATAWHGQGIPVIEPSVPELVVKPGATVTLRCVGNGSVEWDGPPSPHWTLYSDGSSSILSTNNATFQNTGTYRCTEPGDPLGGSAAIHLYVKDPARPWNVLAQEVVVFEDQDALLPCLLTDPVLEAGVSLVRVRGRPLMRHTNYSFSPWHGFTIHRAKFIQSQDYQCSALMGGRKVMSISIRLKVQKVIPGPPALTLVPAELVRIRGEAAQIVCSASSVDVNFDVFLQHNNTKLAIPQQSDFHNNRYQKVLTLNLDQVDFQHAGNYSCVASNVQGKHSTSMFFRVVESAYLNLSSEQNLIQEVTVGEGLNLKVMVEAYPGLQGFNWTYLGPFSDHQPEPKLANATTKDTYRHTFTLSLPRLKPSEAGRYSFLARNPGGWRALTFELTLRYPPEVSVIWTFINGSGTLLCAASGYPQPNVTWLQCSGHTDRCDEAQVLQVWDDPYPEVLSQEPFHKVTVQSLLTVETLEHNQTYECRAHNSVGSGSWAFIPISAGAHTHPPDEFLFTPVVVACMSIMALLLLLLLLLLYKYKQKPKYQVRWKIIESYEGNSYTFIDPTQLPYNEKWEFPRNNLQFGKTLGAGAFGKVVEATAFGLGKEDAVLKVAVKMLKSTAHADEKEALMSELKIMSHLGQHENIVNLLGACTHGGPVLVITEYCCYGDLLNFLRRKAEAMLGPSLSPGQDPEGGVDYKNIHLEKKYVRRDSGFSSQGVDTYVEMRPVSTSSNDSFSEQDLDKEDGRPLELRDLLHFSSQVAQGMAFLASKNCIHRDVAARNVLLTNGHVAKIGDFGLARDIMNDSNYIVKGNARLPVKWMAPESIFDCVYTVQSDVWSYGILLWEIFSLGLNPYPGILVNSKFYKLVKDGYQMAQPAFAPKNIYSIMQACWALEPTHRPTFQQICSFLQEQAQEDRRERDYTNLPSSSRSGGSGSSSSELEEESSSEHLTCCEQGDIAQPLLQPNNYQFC
UniProt P48729: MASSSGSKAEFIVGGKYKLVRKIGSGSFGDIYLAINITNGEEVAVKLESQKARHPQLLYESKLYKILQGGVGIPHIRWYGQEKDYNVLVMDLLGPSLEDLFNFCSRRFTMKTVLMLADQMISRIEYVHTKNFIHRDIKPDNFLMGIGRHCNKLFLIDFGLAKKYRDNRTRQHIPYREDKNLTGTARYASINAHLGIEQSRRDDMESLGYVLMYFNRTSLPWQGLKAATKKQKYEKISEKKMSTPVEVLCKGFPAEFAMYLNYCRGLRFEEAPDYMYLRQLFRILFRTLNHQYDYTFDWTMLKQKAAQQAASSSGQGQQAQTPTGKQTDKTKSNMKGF
UniProt P48730: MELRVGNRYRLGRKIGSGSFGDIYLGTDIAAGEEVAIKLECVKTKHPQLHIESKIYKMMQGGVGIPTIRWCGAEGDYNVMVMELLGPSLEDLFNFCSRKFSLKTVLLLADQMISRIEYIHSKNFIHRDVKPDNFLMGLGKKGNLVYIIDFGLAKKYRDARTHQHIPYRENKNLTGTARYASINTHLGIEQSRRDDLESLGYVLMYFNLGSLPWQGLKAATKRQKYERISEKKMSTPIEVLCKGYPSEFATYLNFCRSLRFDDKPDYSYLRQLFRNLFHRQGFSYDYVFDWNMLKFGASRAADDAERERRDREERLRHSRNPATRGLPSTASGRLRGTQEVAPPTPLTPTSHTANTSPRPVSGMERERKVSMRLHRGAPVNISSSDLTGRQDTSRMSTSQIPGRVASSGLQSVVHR
UniProt Q9Y463, whole entry, looked up: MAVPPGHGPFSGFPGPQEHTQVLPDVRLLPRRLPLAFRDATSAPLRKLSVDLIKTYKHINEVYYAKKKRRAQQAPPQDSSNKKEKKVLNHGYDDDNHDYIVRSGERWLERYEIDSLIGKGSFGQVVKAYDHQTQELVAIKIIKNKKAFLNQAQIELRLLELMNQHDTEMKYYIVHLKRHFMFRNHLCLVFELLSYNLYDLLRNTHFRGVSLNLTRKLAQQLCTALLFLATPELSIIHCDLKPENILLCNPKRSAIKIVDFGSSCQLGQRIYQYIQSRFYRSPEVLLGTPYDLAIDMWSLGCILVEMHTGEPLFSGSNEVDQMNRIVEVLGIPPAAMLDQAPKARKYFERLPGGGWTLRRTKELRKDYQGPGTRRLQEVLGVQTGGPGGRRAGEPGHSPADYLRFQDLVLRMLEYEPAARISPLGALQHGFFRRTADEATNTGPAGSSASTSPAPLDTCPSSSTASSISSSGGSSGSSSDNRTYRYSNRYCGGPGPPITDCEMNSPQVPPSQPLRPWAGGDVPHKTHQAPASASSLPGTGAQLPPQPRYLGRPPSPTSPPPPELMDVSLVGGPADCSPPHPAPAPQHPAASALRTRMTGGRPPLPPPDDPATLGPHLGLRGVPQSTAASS
UniProt Q92630: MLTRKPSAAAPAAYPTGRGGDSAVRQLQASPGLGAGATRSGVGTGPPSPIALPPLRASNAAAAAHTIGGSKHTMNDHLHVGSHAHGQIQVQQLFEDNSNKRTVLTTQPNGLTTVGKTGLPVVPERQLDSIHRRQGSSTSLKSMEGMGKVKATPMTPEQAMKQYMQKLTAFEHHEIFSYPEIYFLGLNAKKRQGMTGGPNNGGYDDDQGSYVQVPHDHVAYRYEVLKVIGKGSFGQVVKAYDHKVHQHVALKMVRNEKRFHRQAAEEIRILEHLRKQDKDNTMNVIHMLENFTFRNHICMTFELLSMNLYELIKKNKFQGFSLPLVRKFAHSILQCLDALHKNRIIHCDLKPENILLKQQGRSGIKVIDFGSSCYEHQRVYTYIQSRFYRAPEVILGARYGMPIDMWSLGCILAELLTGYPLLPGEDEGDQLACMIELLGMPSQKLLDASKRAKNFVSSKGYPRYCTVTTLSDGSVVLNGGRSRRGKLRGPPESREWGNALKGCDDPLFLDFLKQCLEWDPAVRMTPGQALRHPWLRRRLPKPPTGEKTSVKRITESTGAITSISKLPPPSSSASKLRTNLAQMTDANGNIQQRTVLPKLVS

Key:
Test in all cases: kinase-Nluc reporter destabilization hit call (1 = scored as downregulated) (binary); higher = compound decreases kinase abundance
Settings in all cases: K562; 2-18 h
BRAF_V600E = test system: BRAF_V600E
BTK = BTK (UniProt Q06187)
CAMK2A = CAMK2A (UniProt Q9UQM7)
CAMK2G = CAMK2G (UniProt Q13555)
CDK10 = CDK10 (UniProt Q15131)
CDK2 = CDK2 (UniProt P24941)
CDK3 = CDK3 (UniProt Q00526)
CDK4 = CDK4 (UniProt P11802)
CDK5 = CDK5 (UniProt Q00535)
CDK6 = CDK6 (UniProt Q00534)
CDK7 = CDK7 (UniProt P50613)
CDK9 = CDK9 (UniProt P50750)
CHEK2 = CHEK2 (UniProt O96017)
CSF1R = CSF1R (UniProt P07333)
CSK = CSK (UniProt P41240)
CSNK1A1 = CSNK1A1 (UniProt P48729)
CSNK1D = CSNK1D (UniProt P48730)
DDR1 = DDR1 (UniProt Q08345)
DYRK1B = DYRK1B (UniProt Q9Y463)
DYRK2 = DYRK2 (UniProt Q92630)

| SMILES | kinase-Nluc reporter destabilization hit call (BRAF_V600E) | kinase-Nluc reporter destabilization hit call (BTK) | kinase-Nluc reporter destabilization hit call (CAMK2A) | kinase-Nluc reporter destabilization hit call (CAMK2G) | kinase-Nluc reporter destabilization hit call (CDK10) | kinase-Nluc reporter destabilization hit call (CDK2) | kinase-Nluc reporter destabilization hit call (CDK3) | kinase-Nluc reporter destabilization hit call (CDK4) | kinase-Nluc reporter destabilization hit call (CDK5) | kinase-Nluc reporter destabilization hit call (CDK6) | kinase-Nluc reporter destabilization hit call (CDK7) | kinase-Nluc reporter destabilization hit call (CDK9) | kinase-Nluc reporter destabilization hit call (CHEK2) | kinase-Nluc reporter destabilization hit call (CSF1R) | kinase-Nluc reporter destabilization hit call (CSK) | kinase-Nluc reporter destabilization hit call (CSNK1A1) | kinase-Nluc reporter destabilization hit call (CSNK1D) | kinase-Nluc reporter destabilization hit call (DDR1) | kinase-Nluc reporter destabilization hit call (DYRK1B) | kinase-Nluc reporter destabilization hit call (DYRK2) |
| --- | --- | --- | --- | --- | --- | --- | --- | --- | --- | --- | --- | --- | --- | --- | --- | --- | --- | --- | --- | --- |
| CN1CCC(Nc2ncc3ncnc(Nc4ccc(F)c(Cl)c4)c3n2)CC1 [Falnidamol] (10 µM) | inactive: 0 | inactive: 0 | inactive: 0 | inactive: 0 | inactive: 0 | inactive: 0 | inactive: 0 | inactive: 0 | inactive: 0 | inactive: 0 | inactive: 0 | inactive: 0 | inactive: 0 | inactive: 0 | inactive: 0 | inactive: 0 | inactive: 0 | inactive: 0 | inactive: 0 | inactive: 0 |
| O=C([O-])c1ccccc1O.[Na+] [Sodium Salicylate] (10 µM) | inactive: 0 | inactive: 0 | inactive: 0 | inactive: 0 | inactive: 0 | inactive: 0 | inactive: 0 | inactive: 0 | inactive: 0 | inactive: 0 | inactive: 0 | inactive: 0 | inactive: 0 | inactive: 0 | inactive: 0 | inactive: 0 | inactive: 0 | inactive: 0 | inactive: 0 | inactive: 0 |
| O=c1oc2c(O)c(O)cc3c(=O)oc4c(O)c(O)cc1c4c23 [Ellagic acid] (10 µM) | inactive: 0 | inactive: 0 | inactive: 0 | inactive: 0 | inactive: 0 | inactive: 0 | inactive: 0 | inactive: 0 | inactive: 0 | inactive: 0 | inactive: 0 | inactive: 0 | inactive: 0 | inactive: 0 | inactive: 0 | inactive: 0 | inactive: 0 | inactive: 0 | inactive: 0 | inactive: 0 |
| Cc1c[nH]c(/C=C2\C(=O)Nc3ccccc32)c1CCC(=O)O (10 µM) | inactive: 0 | inactive: 0 | inactive: 0 | inactive: 0 | inactive: 0 | inactive: 0 | inactive: 0 | inactive: 0 | inactive: 0 | inactive: 0 | inactive: 0 | inactive: 0 | inactive: 0 | inactive: 0 | inactive: 0 | inactive: 0 | inactive: 0 | inactive: 0 | inactive: 0 | inactive: 0 |
| Oc1ccc(-c2nc(-c3ccc(F)cc3)c(-c3ccncc3)[nH]2)cc1 (2.5 µM) | inactive: 0 | inactive: 0 | inactive: 0 | inactive: 0 | inactive: 0 | inactive: 0 | inactive: 0 | inactive: 0 | inactive: 0 | inactive: 0 | inactive: 0 | inactive: 0 | inactive: 0 | inactive: 0 | inactive: 0 | inactive: 0 | inactive: 0 | inactive: 0 | inactive: 0 | inactive: 0 |
| COc1cc2c(Nc3ccc(Br)cc3F)ncnc2cc1OCCn1ccnn1 (10 µM) | inactive: 0 | inactive: 0 | inactive: 0 | inactive: 0 | inactive: 0 | inactive: 0 | inactive: 0 | inactive: 0 | inactive: 0 | inactive: 0 | inactive: 0 | inactive: 0 | inactive: 0 | inactive: 0 | inactive: 0 | inactive: 0 | inactive: 0 | inactive: 0 | inactive: 0 | inactive: 0 |
| CN1CCN(C2CCN(C(=O)Nc3cc(Oc4ccc(NC(=O)C5(C(=O)Nc6ccc(F)cc6)CC5)c(F)c4)ccn3)CC2)CC1 [Golvatinib] (2.5 µM) | inactive: 0 | inactive: 0 | inactive: 0 | inactive: 0 | inactive: 0 | inactive: 0 | inactive: 0 | inactive: 0 | inactive: 0 | inactive: 0 | inactive: 0 | inactive: 0 | inactive: 0 | inactive: 0 | inactive: 0 | inactive: 0 | inactive: 0 | inactive: 0 | inactive: 0 | inactive: 0 |
| COc1cc(OC)c(F)c(COc2cnc(Nc3cnn(CCO)c3)nc2)c1F (2.5 µM) | inactive: 0 | inactive: 0 | inactive: 0 | inactive: 0 | inactive: 0 | inactive: 0 | inactive: 0 | inactive: 0 | inactive: 0 | inactive: 0 | inactive: 0 | inactive: 0 | inactive: 0 | inactive: 0 | inactive: 0 | inactive: 0 | inactive: 0 | inactive: 0 | inactive: 0 | inactive: 0 |
| C=CC(=O)N1CCN(CCCn2c(=O)c(-c3c(Cl)c(OC)cc(OC)c3Cl)cc3cnc(NC)nc32)CC1 (10 µM) | inactive: 0 | inactive: 0 | inactive: 0 | inactive: 0 | inactive: 0 | inactive: 0 | inactive: 0 | inactive: 0 | inactive: 0 | inactive: 0 | inactive: 0 | inactive: 0 | inactive: 0 | inactive: 0 | inactive: 0 | inactive: 0 | inactive: 0 | inactive: 0 | inactive: 0 | inactive: 0 |
| N#CC(=Cc1ccc(O)c(O)c1)C(=O)NCc1ccccc1 (mixture of isomers) (10 µM) | inactive: 0 | inactive: 0 | inactive: 0 | inactive: 0 | inactive: 0 | inactive: 0 | inactive: 0 | inactive: 0 | inactive: 0 | inactive: 0 | inactive: 0 | inactive: 0 | inactive: 0 | inactive: 0 | inactive: 0 | inactive: 0 | inactive: 0 | inactive: 0 | inactive: 0 | inactive: 0 |
| CCN1C(=O)N(c2c(F)c(OC)cc(OC)c2F)Cc2cnc3[nH]c(CN4CCOCC4)cc3c21 [Pemigatinib] (10 µM) | inactive: 0 | inactive: 0 | inactive: 0 | inactive: 0 | inactive: 0 | inactive: 0 | inactive: 0 | inactive: 0 | inactive: 0 | inactive: 0 | inactive: 0 | inactive: 0 | inactive: 0 | inactive: 0 | inactive: 0 | inactive: 0 | inactive: 0 | inactive: 0 | inactive: 0 | inactive: 0 |
| O=c1c(-c2ccc(O)cc2)coc2cc(O)cc(O)c12 [Genistein] (10 µM) | inactive: 0 | inactive: 0 | inactive: 0 | inactive: 0 | inactive: 0 | inactive: 0 | inactive: 0 | inactive: 0 | inactive: 0 | inactive: 0 | inactive: 0 | inactive: 0 | inactive: 0 | inactive: 0 | inactive: 0 | inactive: 0 | inactive: 0 | inactive: 0 | inactive: 0 | inactive: 0 |
| CCN(CC)CCCCNc1ncc2cc(-c3cc(OC)cc(OC)c3)c(NC(=O)NC(C)(C)C)nc2n1 (10 µM) | inactive: 0 | inactive: 0 | inactive: 0 | inactive: 0 | inactive: 0 | inactive: 0 | inactive: 0 | inactive: 0 | inactive: 0 | inactive: 0 | inactive: 0 | inactive: 0 | inactive: 0 | inactive: 0 | inactive: 0 | inactive: 0 | inactive: 0 | inactive: 0 | inactive: 0 | inactive: 0 |
| O=C(O)CCNC(=O)c1ccc(/N=N/c2ccc(O)c(C(=O)O)c2)cc1 [Balsalazide] (10 µM) | inactive: 0 | inactive: 0 | inactive: 0 | inactive: 0 | inactive: 0 | inactive: 0 | inactive: 0 | inactive: 0 | inactive: 0 | inactive: 0 | inactive: 0 | inactive: 0 | inactive: 0 | inactive: 0 | inactive: 0 | inactive: 0 | inactive: 0 | inactive: 0 | inactive: 0 | inactive: 0 |
| N#C/C(=C\c1ccc(O)c(O)c1)C(=O)NCc1ccccc1 (10 µM) | inactive: 0 | inactive: 0 | inactive: 0 | inactive: 0 | inactive: 0 | inactive: 0 | inactive: 0 | inactive: 0 | inactive: 0 | inactive: 0 | inactive: 0 | inactive: 0 | inactive: 0 | inactive: 0 | inactive: 0 | inactive: 0 | inactive: 0 | inactive: 0 | inactive: 0 | inactive: 0 |
| COc1ccc(C=C(C#N)c2cccnc2)cc1OC (10 µM) | inactive: 0 | inactive: 0 | inactive: 0 | inactive: 0 | inactive: 0 | inactive: 0 | inactive: 0 | inactive: 0 | inactive: 0 | inactive: 0 | inactive: 0 | inactive: 0 | inactive: 0 | inactive: 0 | inactive: 0 | inactive: 0 | inactive: 0 | inactive: 0 | inactive: 0 | inactive: 0 |
| Cn1nc(C(C)(C)C)cc1NC(=O)Nc1ccc(Oc2ccncc2)cc1 (10 µM) | inactive: 0 | inactive: 0 | inactive: 0 | inactive: 0 | inactive: 0 | inactive: 0 | inactive: 0 | inactive: 0 | inactive: 0 | inactive: 0 | active: 1 | inactive: 0 | inactive: 0 | inactive: 0 | inactive: 0 | inactive: 0 | inactive: 0 | inactive: 0 | inactive: 0 | inactive: 0 |
| O=c1oc2c(C3OCCCO3)c(O)ccc2c2c1CNCC2 (10 µM) | inactive: 0 | inactive: 0 | inactive: 0 | inactive: 0 | inactive: 0 | inactive: 0 | inactive: 0 | inactive: 0 | inactive: 0 | inactive: 0 | inactive: 0 | inactive: 0 | inactive: 0 | inactive: 0 | inactive: 0 | inactive: 0 | inactive: 0 | inactive: 0 | inactive: 0 | inactive: 0 |

Some entries already given, limited to kinase-Nluc reporter destabilization hit call (CDK5), kinase-Nluc reporter destabilization hit call (DYRK2) and kinase-Nluc reporter destabilization hit call (CSNK1A1).
SMILES | kinase-Nluc reporter destabilization hit call (CDK5) | kinase-Nluc reporter destabilization hit call (DYRK2) | kinase-Nluc reporter destabilization hit call (CSNK1A1)
O=c1oc2c(O)c(O)cc3c(=O)oc4c(O)c(O)cc1c4c23 [Ellagic acid] (10 µM) | inactive: 0 | inactive: 0 | inactive: 0
Cn1nc(C(C)(C)C)cc1NC(=O)Nc1ccc(Oc2ccncc2)cc1 (10 µM) | inactive: 0 | inactive: 0 | inactive: 0
